Assay results as given in article PMC2821923.
Residue numbers refer to the chain shown, from its start. No constants are given. Whether binding was seen depends on the method and setting. Binding seen in cells or lysates may run through a third protein. Some binding calls cover weakened binding; strength is not graded here. Where a sequence is shown, tags or fusion partners need not be part of it.

The chains behind the UniProt entries cited, without tags or fusion partners.
UniProt P69853: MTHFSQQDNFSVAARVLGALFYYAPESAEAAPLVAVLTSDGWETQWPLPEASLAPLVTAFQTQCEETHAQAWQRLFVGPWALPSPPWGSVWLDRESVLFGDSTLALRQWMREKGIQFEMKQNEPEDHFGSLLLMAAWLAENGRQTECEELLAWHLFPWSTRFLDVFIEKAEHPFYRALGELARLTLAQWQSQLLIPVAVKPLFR

How the values were obtained:
Assay in all cases: split reporter; split YFP BiFC in living TG1 ΔtatABCE cells (TatA also in ΔtatAE, TatB/TatC also in ΔtatB and ΔtatC); median fluorescence by flow cytometry against unfused Y1 or Y2 controls, fluorescence microscopy
[1] = molecular target: T1, TatC(P48A) fused to a YFP fragment (P48A-Y1; P48A-Y2) (E. coli) (UniProt P69423)
T1 sequence: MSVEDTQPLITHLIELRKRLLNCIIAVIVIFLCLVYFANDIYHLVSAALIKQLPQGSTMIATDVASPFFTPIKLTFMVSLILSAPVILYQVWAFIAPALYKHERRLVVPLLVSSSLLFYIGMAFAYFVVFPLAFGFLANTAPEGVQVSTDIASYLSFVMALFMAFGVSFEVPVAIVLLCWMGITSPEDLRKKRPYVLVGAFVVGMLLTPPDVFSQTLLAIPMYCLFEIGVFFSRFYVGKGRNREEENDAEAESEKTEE

[2] = molecular target: T2, TatC fused to a YFP fragment (TatC-Y1; TatC-Y2) (E. coli) (UniProt P69423)
T2 sequence: T1 sequence with A48P

[3] = molecular target: T3, TatB fused to a YFP fragment (TatB-Y1; TatB-Y2) (E. coli) (UniProt P69425)
T3 sequence: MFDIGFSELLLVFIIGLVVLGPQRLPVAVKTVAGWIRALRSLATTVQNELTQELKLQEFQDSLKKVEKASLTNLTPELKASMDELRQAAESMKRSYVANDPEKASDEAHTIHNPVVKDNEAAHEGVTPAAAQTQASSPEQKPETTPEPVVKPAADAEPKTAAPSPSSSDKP

binding [1]: binds
binding [2]: binds
binding [3]: binds
Substance: DmsD fused to a YFP fragment (DmsD-Y2; DmsD-Y1) (from UniProt P69853 1-204)
